# According to publication PMC5999394, “Design principles of a microtubule polymerase” (eLife, 2018):
# The chains behind the UniProt entries cited, without tags or fusion partners. Where a name states a change or a piece, a line headed by the entry shows the natural chain unless it says otherwise.
# UniProt P09733: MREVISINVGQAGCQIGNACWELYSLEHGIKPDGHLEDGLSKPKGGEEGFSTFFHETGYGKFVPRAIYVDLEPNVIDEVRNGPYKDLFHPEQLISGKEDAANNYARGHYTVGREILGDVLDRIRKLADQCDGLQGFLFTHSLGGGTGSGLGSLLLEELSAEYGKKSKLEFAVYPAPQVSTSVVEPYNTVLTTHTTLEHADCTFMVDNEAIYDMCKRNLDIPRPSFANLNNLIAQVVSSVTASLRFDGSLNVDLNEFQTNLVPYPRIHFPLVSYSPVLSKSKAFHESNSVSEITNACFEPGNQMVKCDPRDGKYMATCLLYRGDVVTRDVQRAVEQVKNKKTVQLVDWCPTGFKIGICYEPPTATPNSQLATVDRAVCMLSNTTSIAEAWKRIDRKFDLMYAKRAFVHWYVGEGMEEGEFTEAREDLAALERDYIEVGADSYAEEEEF
# UniProt P02557: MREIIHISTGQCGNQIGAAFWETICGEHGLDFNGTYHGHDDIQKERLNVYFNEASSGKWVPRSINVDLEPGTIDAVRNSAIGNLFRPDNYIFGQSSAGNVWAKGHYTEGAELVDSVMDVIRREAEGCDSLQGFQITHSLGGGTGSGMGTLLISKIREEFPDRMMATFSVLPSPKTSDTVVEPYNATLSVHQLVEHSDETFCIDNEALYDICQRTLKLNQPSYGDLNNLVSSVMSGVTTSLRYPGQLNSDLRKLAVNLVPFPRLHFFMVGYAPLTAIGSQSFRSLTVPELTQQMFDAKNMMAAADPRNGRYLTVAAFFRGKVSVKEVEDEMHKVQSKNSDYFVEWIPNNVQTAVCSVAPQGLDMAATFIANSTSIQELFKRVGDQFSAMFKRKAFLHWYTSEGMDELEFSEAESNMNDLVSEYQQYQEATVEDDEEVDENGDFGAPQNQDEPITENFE
# No constants are given. Whether binding was seen depends on the method and setting. Some entries that bind do so weakly or less than the wild type. Sequences can lack the tags named with a protein.
# B1: mCherry-tagged Zyg-9 (protein, UniProt G5EEM5 1-1415)
# chain: MSNWDYLDEVDILPKLPPNFDELRESKKWQERKEALEALLKVLTDNERLSTKASYAELIGHLQMVLAKDANINCQALAAKCIGKFATGLRAKFSSFAGPLLPVIFEKMKEKKPMLREPLVDCSNEVGRTMQSLETGQEDILAALAKPNPQIKQQTALFVARQLDLVVPAKQPKGFIKAVVPVFGKLTGDADQDVREASLQGLGAVQRIIGDKNVKNLLGDASSDEGKMKKIGEYAEKSTASFAEEQAKNAPPVAPTSSTPSASAASGDPSGGTATAVVSSGAPVAEADPWDFLDAFDVLSKMPDGFDTNIESKKWQERKEALEGLLQLITANPKLDPKANYGALVERLQKVLEKDANINVAALAANCITGIANGLRTKFQPFAVSVTPIIFEKFKEKKPTLRDPLVACIDAVVATTNLEAVGEIVLAALGKPNPSIKTQTDLFLQRCFMKLNSQTMPKKTLKTLIPSLIKHSGDSDSEVREASYAAMGAMMRAIGEKPSLQLLADIASDNLKMSKIKEFHQKALDEAGPAEIAEMVKSIHKADAPPAAAPPKKTAPPKKQPEDEEVVEEEDEPLKPPPGDKKKKVPVKENEENEPPVVAPKAELLLSDNEDKKQRIKEEKQLKLVKWNFQAPTDEHISQLQTLLGNQAKVSLMSQLFHKDFKQHLAALDSLVRLADTSPRSLLSNSDLLLKWCTLRFFETNPAALIKVLELCKVIVELIRDTETPMSQEEVSAFVPYLLLKTGEAKDNMRTSVRDIVNVLSDVVGPLKMTPMLLDALKSKNARQRSECLLVIEYYITNAGISPLKSLSVEKTVAPFVGDKDVNVRNAAINVLVACFKFEGDQMWKAAGRMADKDKSLVEERIKRTGVKPGSGVVTSPPTGGPKILVPQQQGSVVRRPASRSRTREPEPEEVQSDTFTIRQDTMPPKTSSRYALRDDVFSSAMGRLDGTQVITPPQPVNGWSNNTFQMKRTNSSSSISSIDTSDQIQRSINNISSSLADVAQDAMFQVTYVLNQPEQRHLVDRRADLVFRASAAQLDLVIEEFNAGRDVSGTMDACTQMLFILMGGVETEHGLEPLNASPDTVKAIISSVLRCIIQIGNTESGYGMARSLNRLAMRLIYRVELSNLLCGLILAMTESLQMNTGITELVSKLSSKWCDELEKRRAQLRASDIVDSFNAFYVCALTELKMDISDSHILIVDNYLERVILQQGDVVLDAARRLSRPHMHLTSMINKILQMMRERKIDPIMPGTLEARMPQEDEAVVVRSGVQVSIDNILRDTSMAVKHIEQLNILIASSDRSWNEYMEYLKNNPMGELIKELVGECSRKKRIDFNLSHVVKSSMAVFKAMAATGPVQEEGRITPTDINRMDTMIVGTPLSRGDATITRARGNMIRPKRTTLSRDQMANIRHTLDRVKNH
# Molecular target: wild-type yeast microtubules (polymerized wild-type yeast αβ-tubulin) (S. cerevisiae) (UniProt P09733+P02557)
# Assay: TIRF microscopy of Zyg-9-mCherry on stabilized microtubules; 50 nM Zyg-9-mCherry on unlabeled GTPγS-stabilized yeast microtubules, without or with 5 μM bovine tubulin as competing binding partner; both purified
binder,measurement,value
B1,binding,binds
